Here are results for one molecule from patent US4327222A, “3,4-Diarylisoxazol-5-acetic acids and process for making same” (priority 1979, dated 1982).

Like-named read-outs stand apart in the source and are kept apart here.

Series [1] can be described thus: in vivo. The note with it: rat, po, rats, read-out: Acute Toxicity (LD50) p.o. The method, then:
Acute toxicities are determined in rats and in mice and the LD50 's are calculated according to the method of Litchfield and Wilcoxon, J.Pharmacol.Exp. Therap.

A short description of series [2]: in vivo. The note with it: mouse, po, mice, read-out: Acute Toxicity (LD50) p.o. The protocol:
138, 405 (1962), both in the rat. […] Acute toxicities are determined in rats and in mice and the LD50 's are calculated according to the method of Litchfield and Wilcoxon, J.Pharmacol.Exp. Therap. 96, 99 (1949).

Usually LD50 stands for the dose at which mortality reaches 50%. Regarding `COc1ccc2cc([C@H](C)C(=O)O)ccc2c1` [Naproxen], the LD50 amounted to 347 mg/kg in the series “in vivo [1]” and 830 mg/kg in the series “in vivo [2]”.
